Measurements: the supplement of paper PMC10849652
Some of the results follow.

Protein sequences, listed by entry. Tags and fused reporters are not part of them. Lines headed by an entry give the natural chain unless they say otherwise; changes in a name come on top.
UniProt Q17R31: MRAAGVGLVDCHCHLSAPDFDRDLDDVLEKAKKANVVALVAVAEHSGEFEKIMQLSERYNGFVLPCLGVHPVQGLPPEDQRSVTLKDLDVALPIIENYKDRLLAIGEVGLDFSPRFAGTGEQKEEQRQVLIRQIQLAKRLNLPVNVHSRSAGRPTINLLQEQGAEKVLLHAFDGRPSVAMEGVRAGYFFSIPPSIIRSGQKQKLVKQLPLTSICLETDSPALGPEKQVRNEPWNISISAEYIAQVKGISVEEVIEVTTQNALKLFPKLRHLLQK
UniProt O43760: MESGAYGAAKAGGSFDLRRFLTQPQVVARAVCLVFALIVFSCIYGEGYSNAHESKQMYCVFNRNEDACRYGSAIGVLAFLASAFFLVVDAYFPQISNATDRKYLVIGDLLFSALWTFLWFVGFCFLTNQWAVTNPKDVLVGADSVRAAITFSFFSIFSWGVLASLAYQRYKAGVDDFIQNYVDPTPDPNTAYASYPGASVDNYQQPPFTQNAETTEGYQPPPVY
UniProt Q6P1X5, whole entry, looked up: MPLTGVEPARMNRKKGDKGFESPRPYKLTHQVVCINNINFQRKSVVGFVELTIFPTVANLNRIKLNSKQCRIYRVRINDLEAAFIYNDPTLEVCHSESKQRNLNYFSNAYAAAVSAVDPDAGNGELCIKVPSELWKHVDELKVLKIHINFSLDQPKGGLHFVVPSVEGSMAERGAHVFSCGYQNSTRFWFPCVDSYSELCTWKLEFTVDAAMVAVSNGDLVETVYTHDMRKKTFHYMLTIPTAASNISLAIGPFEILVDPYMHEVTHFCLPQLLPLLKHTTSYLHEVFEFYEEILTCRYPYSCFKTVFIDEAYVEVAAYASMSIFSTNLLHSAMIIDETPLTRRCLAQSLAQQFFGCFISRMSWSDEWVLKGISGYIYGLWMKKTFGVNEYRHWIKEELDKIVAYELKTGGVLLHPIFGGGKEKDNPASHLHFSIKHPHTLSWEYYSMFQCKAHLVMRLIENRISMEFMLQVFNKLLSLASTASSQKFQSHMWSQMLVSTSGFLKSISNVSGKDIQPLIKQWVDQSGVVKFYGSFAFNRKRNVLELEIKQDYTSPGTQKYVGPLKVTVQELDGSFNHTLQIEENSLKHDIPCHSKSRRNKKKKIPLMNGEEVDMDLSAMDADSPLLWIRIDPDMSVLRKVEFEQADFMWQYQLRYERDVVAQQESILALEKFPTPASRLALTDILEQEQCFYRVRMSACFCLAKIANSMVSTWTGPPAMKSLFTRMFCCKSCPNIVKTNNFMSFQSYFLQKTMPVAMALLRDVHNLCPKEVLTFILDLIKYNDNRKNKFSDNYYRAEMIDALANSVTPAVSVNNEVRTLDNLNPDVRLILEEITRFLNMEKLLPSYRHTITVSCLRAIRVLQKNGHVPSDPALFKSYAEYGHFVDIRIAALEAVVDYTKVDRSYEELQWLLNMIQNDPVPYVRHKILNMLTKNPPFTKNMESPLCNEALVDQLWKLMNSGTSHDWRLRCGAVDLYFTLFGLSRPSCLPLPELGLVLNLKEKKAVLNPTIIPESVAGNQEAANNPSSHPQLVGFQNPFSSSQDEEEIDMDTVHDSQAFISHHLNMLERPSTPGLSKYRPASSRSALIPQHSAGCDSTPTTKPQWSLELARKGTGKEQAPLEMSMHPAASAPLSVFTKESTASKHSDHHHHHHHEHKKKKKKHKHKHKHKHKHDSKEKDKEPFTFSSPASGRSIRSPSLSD
UniProt Q9UBS9: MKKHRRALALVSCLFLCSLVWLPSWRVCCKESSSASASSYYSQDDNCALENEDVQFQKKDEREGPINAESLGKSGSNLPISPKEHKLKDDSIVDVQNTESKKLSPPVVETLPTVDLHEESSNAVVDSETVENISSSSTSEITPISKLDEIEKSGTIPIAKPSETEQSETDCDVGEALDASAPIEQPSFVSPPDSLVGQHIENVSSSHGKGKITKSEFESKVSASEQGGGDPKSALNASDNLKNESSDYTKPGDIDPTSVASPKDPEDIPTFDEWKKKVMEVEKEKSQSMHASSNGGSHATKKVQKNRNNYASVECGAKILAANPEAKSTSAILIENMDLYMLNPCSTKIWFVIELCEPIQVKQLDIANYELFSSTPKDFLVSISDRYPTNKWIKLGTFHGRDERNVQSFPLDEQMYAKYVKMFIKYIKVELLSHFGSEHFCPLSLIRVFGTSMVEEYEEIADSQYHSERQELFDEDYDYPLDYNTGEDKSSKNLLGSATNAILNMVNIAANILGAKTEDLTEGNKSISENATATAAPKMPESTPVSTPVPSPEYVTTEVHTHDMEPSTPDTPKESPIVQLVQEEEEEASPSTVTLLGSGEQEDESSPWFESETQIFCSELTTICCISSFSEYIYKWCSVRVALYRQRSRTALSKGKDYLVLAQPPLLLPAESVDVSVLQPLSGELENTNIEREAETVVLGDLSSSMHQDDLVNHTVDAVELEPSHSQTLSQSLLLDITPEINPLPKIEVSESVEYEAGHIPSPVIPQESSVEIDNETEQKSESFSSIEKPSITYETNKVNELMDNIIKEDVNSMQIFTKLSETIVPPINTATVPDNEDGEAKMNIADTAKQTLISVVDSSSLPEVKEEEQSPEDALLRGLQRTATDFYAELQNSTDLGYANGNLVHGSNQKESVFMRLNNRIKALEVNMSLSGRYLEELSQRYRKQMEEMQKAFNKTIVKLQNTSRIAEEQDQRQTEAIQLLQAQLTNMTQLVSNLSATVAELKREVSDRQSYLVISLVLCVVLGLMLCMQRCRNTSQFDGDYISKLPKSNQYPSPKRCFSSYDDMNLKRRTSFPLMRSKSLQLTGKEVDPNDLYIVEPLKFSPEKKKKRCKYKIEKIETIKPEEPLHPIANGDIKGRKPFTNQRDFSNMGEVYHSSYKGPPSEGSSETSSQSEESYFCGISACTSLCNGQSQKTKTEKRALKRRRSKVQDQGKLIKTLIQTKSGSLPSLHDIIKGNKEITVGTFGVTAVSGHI
UniProt Q6NXT6: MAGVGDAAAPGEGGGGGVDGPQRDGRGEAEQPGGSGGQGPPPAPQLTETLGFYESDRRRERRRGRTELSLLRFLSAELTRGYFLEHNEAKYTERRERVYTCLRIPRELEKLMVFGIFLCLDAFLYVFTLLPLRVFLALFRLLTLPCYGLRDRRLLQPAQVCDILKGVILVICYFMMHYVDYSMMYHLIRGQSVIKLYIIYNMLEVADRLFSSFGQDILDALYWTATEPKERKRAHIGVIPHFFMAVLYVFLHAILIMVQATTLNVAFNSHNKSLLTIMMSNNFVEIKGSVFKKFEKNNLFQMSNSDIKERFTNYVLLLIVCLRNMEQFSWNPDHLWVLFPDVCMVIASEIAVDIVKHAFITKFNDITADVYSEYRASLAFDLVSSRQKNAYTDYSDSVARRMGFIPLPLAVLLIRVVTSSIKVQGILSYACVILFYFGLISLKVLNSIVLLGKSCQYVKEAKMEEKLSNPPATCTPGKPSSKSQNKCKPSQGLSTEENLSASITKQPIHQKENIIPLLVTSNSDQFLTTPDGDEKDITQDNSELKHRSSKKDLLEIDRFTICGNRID
UniProt Q13190: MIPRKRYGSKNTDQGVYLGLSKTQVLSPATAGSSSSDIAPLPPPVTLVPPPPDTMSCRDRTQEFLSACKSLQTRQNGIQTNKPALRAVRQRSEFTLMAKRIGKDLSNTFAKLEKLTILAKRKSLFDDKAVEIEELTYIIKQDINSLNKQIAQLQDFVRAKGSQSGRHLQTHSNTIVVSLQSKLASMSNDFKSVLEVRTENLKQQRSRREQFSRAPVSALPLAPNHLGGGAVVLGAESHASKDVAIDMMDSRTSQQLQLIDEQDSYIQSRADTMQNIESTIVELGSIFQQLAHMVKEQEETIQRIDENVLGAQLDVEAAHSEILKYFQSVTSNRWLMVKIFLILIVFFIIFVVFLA
UniProt P16949: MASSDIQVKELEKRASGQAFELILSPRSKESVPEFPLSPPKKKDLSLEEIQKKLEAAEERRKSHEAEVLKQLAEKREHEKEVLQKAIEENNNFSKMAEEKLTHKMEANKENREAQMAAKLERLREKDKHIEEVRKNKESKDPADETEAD
UniProt Q15545, whole entry, looked up: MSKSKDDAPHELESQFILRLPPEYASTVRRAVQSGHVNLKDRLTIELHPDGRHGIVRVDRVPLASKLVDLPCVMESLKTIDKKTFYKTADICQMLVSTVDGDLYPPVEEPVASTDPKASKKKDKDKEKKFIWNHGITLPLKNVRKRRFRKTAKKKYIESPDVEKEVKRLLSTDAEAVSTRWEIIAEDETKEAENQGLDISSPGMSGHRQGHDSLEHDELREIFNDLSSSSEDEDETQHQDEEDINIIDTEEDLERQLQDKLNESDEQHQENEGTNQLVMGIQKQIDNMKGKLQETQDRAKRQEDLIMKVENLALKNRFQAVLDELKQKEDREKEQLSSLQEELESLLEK
UniProt Q9Y2Z0: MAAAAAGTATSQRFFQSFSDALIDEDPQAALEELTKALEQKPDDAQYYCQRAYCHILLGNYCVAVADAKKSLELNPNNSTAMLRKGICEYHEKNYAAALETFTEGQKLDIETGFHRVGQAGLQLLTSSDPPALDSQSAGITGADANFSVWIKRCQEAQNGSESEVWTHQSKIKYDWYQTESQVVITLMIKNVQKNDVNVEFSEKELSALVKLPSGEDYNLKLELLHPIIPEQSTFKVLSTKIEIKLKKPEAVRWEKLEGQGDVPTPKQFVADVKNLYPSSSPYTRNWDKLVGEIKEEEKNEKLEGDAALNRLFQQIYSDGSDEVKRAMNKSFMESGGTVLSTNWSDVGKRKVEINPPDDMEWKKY
UniProt Q8N300: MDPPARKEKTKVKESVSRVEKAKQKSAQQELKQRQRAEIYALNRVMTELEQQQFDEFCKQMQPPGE
UniProt Q7Z422: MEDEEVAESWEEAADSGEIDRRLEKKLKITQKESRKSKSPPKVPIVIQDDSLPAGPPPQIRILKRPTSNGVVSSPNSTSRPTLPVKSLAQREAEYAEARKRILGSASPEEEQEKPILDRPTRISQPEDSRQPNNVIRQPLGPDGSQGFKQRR
UniProt A2RTX5: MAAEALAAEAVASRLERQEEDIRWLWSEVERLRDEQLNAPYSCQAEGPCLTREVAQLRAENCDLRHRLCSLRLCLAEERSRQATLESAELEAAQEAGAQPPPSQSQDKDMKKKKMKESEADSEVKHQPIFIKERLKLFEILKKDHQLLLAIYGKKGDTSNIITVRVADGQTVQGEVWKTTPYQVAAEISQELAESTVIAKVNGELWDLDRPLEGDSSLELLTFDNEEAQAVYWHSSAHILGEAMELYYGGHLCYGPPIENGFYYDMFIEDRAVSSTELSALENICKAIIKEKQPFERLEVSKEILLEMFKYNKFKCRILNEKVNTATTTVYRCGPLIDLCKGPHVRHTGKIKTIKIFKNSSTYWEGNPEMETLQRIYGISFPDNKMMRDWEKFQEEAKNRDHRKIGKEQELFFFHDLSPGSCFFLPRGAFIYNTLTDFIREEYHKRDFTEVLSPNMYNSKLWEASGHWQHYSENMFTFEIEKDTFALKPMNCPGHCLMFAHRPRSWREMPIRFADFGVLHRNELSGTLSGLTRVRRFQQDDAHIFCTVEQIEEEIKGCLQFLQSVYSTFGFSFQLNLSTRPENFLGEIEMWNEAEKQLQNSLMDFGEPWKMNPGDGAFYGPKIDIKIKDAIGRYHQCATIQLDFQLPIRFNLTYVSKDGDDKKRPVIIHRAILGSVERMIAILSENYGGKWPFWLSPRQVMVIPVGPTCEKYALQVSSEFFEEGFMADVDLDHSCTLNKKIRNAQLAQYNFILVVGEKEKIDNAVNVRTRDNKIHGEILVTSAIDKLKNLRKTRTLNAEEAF
UniProt O14662: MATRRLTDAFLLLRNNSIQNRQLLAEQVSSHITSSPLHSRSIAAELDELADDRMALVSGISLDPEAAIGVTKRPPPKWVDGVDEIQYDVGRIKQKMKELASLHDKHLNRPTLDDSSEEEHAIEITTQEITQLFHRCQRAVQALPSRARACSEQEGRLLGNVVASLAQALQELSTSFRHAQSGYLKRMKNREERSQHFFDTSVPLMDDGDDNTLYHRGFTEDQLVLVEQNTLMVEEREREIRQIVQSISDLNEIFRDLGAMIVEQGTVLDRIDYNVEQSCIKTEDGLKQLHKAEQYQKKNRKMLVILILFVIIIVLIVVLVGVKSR
UniProt Q7RTN6: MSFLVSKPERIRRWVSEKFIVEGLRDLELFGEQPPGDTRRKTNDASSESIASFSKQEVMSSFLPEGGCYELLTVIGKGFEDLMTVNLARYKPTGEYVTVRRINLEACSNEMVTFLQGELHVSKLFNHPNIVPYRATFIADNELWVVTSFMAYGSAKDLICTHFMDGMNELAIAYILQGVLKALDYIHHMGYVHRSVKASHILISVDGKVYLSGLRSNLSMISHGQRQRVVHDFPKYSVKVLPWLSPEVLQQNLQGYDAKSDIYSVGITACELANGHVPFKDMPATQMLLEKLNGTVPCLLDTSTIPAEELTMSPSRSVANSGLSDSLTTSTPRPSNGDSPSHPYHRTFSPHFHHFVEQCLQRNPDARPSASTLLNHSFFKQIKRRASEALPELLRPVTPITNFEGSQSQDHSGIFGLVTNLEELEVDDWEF

These targets were tested with c1cn2cc(-c3ccc4cn[nH]c4c3)nc(Nc3ccc(N4CCOCC4)cc3)c2n1 [entospletinib] (assay: log2 fold change, soluble protein after heating vs DMSO (PISA); higher = thermal stabilisation; K562 cells, 10 uM, 30 min; active = over 0.2 and 3.5 SD of the protein, either way, in both replicates (recomputed)).
Summary of the method: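 K562 cells at 2×10^6 cells/mL were given 10 μM compound for 30 min. Aliquots then went through 3 min of heating across 48°C-58°C, were pooled, and were extracted in PBS with 0.5% NP-40 at 4°C, and the supernatant after 21,000xg for 90 min was quantified by TMTpro 16plex LC-MS/MS with channel sums equalised. Thermal stability relative to control samples, from duplicates, is given as log2 fold change.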

log2 fold change, inactive:
TATDN3 isoform 3 (UniProt Q17R31) -0.006
SYNJ1 (UniProt O43426) 0.004
SYNJ2BP-COX16, A0A087WYV9 0.062
STX10 (UniProt O60499) 0.194
SYNGR2 (UniProt O43760) 0.018
SYNRG (UniProt Q9UMZ2) -0.008
SUCLG2 (UniProt Q96I99) -0.048
TAF2 (UniProt Q6P1X5) 0.072
STT3A (UniProt P46977) -0.004
SUCO (UniProt Q9UBS9) 0.06
STT3B (UniProt Q8TCJ2) -0.016
TAGLN2 isoform 2 (UniProt P37802) 0.038
STRN4 isoform 3 (UniProt Q9NRL3) -0.037
STRIP1 (UniProt Q5VSL9) -0.097
TAF10 (UniProt Q12962) 0.012
SUPV3L1 (UniProt Q8IYB8) 0.01
TACO1 (UniProt Q9BSH4) -0.067
SYAP1 (UniProt Q96A49) -0.038
TARDBP (UniProt Q13148) 0.048
STXBP1 (UniProt P61764) -0.043
TAPT1 (UniProt Q6NXT6) -0.005
TACC3 (UniProt Q9Y6A5) -0.008
STX5 (UniProt Q13190) 0.034
STMN1 (UniProt P16949) -0.036
TAF7 (UniProt Q15545) -0.013
SUGT1 (UniProt Q9Y2Z0) -0.011
TAB1 (UniProt Q15750) 0.029
SVBP (UniProt Q8N300) 0.064
SYNCRIP (UniProt O60506) 0.115
SZRD1 (UniProt Q7Z422) 0.011
TARSL2 (UniProt A2RTX5) 0.021
SYVN1 (UniProt Q86TM6) -0.07
TAF8 isoform 2 (UniProt Q7Z7C8) 0.053
STX16 isoform 2 (UniProt O14662) 0.048
TAF15 (UniProt Q92804) 0.097
TANGO2 isoform 4 (UniProt Q6ICL3) -0.019
STX12 (UniProt Q86Y82) 0.007
STRIP2 (UniProt Q9ULQ0) -0.128
STRADA (UniProt Q7RTN6) 0.008

Not a retest: an excerpt of the list.
log2 fold change, inactive:
SYNCRIP (UniProt O60506) 0.115
SZRD1 (UniProt Q7Z422) 0.011
